# Assay results as given in publication PMC5061317, “Transactivation Assays to Assess Canine and Rodent Pregnane X Receptor (PXR) and Constitutive Androstane Receptor (CAR) Activation” (PLoS ONE, 2016).
# Assays:
# rat CAR3 [1] = target: T1, rat CAR3 (Rattus norvegicus, UniProt Q9QUS1, INS280APYLT); test: Rat CAR3 transactivation assay with CYP2B6 promoter/enhancer reporter (rCAR3/2B6); type: cell-based; set-up: expressed in transfected cells; host or cells: HepG2 (transient transfection); details: dose-response 0.01 μM to 20 μM, 48 h; read-out: EC50, rCAR3/2B6 activation
# T1 sequence (Q9QUS1 with tags, fused parts or gaps INS280APYLT): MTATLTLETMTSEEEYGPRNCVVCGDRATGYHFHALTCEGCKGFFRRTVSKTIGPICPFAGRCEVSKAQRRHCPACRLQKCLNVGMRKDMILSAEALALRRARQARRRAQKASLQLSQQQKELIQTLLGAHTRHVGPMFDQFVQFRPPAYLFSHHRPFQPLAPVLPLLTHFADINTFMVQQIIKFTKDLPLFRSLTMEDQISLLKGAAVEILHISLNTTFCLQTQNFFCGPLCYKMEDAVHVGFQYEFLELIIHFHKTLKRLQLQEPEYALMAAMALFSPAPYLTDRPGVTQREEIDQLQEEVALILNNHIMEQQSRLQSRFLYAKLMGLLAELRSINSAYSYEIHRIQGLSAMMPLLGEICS
# T1 sequence (P19793 1-462 partner): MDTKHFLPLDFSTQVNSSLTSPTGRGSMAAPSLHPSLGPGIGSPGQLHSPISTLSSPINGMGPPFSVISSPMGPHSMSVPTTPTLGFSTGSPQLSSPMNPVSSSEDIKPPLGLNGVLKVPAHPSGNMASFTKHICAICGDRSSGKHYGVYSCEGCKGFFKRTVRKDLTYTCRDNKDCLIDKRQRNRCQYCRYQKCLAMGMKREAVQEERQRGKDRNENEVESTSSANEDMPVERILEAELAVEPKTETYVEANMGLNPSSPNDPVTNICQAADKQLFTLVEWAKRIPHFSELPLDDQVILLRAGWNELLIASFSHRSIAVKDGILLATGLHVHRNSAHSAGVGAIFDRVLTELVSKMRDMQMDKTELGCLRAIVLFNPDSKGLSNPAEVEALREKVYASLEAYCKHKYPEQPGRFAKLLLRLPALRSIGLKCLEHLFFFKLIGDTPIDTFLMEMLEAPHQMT
# Description: (§1) To construct an expression vector harboring canine CAR3, reference CAR sequence (CAR1) for canine (Accession number: FJ202015) was amplified from C. familiaris liver cDNA. PCR conditions were 98°C for 2 min, 30 cycles of 98°C for 30 sec and 72°C for 1 min, followed by 72°C for 7 min and cooling to 4°C. The resulting PCR product was cloned into the pCR2.1 vector for sequence analysis and subsequently cloned into a pCDNA 3.1 expression vector (Life Technologies, Carlsbad, CA). […] Canine CAR1 was mutated to obtain CAR3 by introducing […] motif. This was performed using forward primer: 5’- […] -3’ and reverse primer: 5’- […] -3’ in concert with QuikChange Lightning mutagenesis kit (Agilent) according to manufacturer’s instructions. The presence of correct canine CAR3 was verified by sequence analysis. […]
# (§2) Assessment of cell viability and transcriptional activation was performed in the same wells using the CellTiter-Fluor cell viability assay and ONE-Glo Luciferase assay. Fluorescence was determined on a BioTek Synergy 2 Luminometer (BioTek Instruments, Winooski, VT) with excitation at 400 nm and emission at 510 nm. Following viability determination luminescence was monitored.
# (§3) Fluorescent light units were utilized to normalize for viable cell number in the luciferase (transcriptional activation) assay and expressed as the average of three determinations/chemical agent and concentration. […]
# rat CAR3 [2] = target: T1, rat CAR3; test: Rat CAR3 transactivation assay with CYP3A4 promoter/enhancer reporter (rCAR3/3A4)
# Description: as §1, §2, §3
compound,measurement,setting,value
Clc1ccccc1C(c1ccccc1)(c1ccccc1)n1ccnc1 [Clotrimazole],EC50,rat CAR3 [1],1400 nM
same,EC50,rat CAR3 [2],4100 nM
